Source: paper PMC4418665 (PLoS ONE, 2015)
Some peptides are written in HELM: one residue between dots, names in brackets for other building blocks, links after the first $.

Test: general procedure: Fmoc solid-phase peptide synthesis; 2-chlorotrityl chloride resin
Conditions: whole synthesis, Analytical RP-HPLC

Substance: PEPTIDE1{R.S.S.Y.R}$PEPTIDE1,PEPTIDE1,1:R1-5:R2$$$V2.0
- final HPLC purity: 95.76%
